Test results from publication PMC10565642.

Target: FLAG-tagged NLRP1ΔPYDΔCARD (human)
Assay: co-IP; HEK293T cells transfected with FLAG-tagged NLRP1 constructs; lysis in 50 mM Tris-HCl, 150 mM NaCl, 1% NP40; 1 mg lysate with ANTI-FLAG M2 resin, 2 h at 4°C

binding: binds
B1: LRRFIP1 in HEK293 cells (protein, UniProt Q32MZ4 1-808)
chain: MTSPAAAQSREIDCLSPEAQKLAEARLAAKRAARAEAREIRMKELERQQKEEDSERYSRRSRRNTSASDEDERMSVGSRGSLRVEERPEKDFTEKGSRNMPGLSAATLASLGGTSSRRGSGDTSISIDTEASIREIKELNELKDQIQDVEGKYMQGLKEMKDSLAEVEEKYKKAMVSNAQLDNEKTNFMYQVDTLKDMLLELEEQLAESRRQYEEKNKEFEREKHAHSILQFQFAEVKEALKQREEMLEKHGIILNSEIATNGETSDTLNNVGYQGPTKMTKEELNALKSTGDGTLGRASEVEVKNEIVANVGKREILHNTEKEQHTEDTVKDCVDIEVFPAGENTEDQKSSEDTAPFLGTLAGATYEEQVQSQILESSSLPENTVQVESNEVMGAPDDRTRTPLEPSNCWSDLDGGNHTENVGEAAVTQVEEQAGTVASCPLGHSDDTVYHDDKCMVEVPQELETSTGHSLEKEFTNQEAAEPKEVPAHSTEVGRDHNEEEGEETGLRDEKPIKTEVPGSPAGTEGNCQEATGPSTVDTQNEPLDMKEPDEEKSDQQGEALDSSQKKTKNKKKKNKKKKSPVPVETLKDVKKELTYQNTDLSEIKEEEQVKSTDRKSAVEAQNEVTENPKQKIAAESSENVDCPENPKIKLDGKLDQEGDDVQTAAEEVLADGDTLDFEDDTVQSSGPRAGGEELDEGVAKDNAKIDGATQSSPAEPKSEDADRCTLPEHESPSQDISDACEAESTERCEMSEHPSQTVRKALDSNSLENDDLSAPGREPGHFNPESREDTRGGNEKGKSKEDCTMS

Results are given in words; binding and its absence hold for the method and conditions named. In cells and extracts the contact can be indirect. Binding can be weak; no strength is given.
